PubChem BioAssay AID1224828 – NIAID, 2016
Assay: 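Find genes required for NF-kappaB p65 moving into the nucleus after LPS in mouse macrophages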 (primary screen). System: mouse RAW264.7 G9 macrophage reporter cells (GFP-p65, Tnf promoter-mCherry). Knock-down reagent: siRNA pool against mouse genes, 100 nM. Duration: 2 days siRNA transfection, then 40 min LPS before fixation. Conditions: LPS (Salmonella minnesota R595) at 10 ng/ml. Detection: 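Microscopy ratio of nuclear to perinuclear-ring GFP-p65 signal, scaled to the plate median; gene score is the average of two replicate robust z-scores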. Reading the numbers: p65 translocation robust z-score: higher = more nuclear NF-kappaB p65 after LPS than the plate median; nuclear/cytoplasmic p65 ratio: higher = more nuclear NF-kappaB p65. Hit rule: 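Called active when z exceeds 3.3 or falls under -1.56 (median of Tlr4 controls), giving activity score of at least 50; no calls for control wells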. Calls: active = hit (p65 shift raised or lowered); inactive = no clear change.
The whole screen tested about 17,000 reagents; below is a part drawn at random. 762 of all reagents (4.5%) count as active. 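Active calls include both raised and lowered p65 entry, mostly lowered; wells with fewer than 50 cells lack a z-score.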 The raw values are shown without normalisation. Reagent sequences are not shown.

Engase (endo-beta-N-acetylglucosaminidase)
- p65 translocation robust z-score: 1.93
- nuclear/cytoplasmic p65 ratio, rep 1: 1.83
- nuclear/cytoplasmic p65 ratio, rep 2: 1.52
- low cell count flag: enough cells to score
- call: inactive

Nprl2 (NPR2 like, GATOR1 complex subunit)
- p65 translocation robust z-score: 0.64
- nuclear/cytoplasmic p65 ratio, rep 1: 1.61
- nuclear/cytoplasmic p65 ratio, rep 2: 1.58
- low cell count flag: enough cells to score
- call: inactive

Slc25a40
- p65 translocation robust z-score: -0.9
- nuclear/cytoplasmic p65 ratio, rep 1: 1.45
- nuclear/cytoplasmic p65 ratio, rep 2: 1.41
- low cell count flag: enough cells to score
- call: inactive

Gm4793 (predicted gene 4793)
- p65 translocation robust z-score: -1.45
- nuclear/cytoplasmic p65 ratio, rep 1: 1.5
- nuclear/cytoplasmic p65 ratio, rep 2: 1.32
- low cell count flag: enough cells to score
- call: inactive

Or5p50 (olfactory receptor family 5 subfamily P member 50)
- nuclear/cytoplasmic p65 ratio, rep 1: 1.72
- nuclear/cytoplasmic p65 ratio, rep 2: 1.38
- low cell count flag: fewer than 50 cells per well; well left out of scoring
- call: inactive

Lypd1 (Ly6/Plaur domain containing 1)
- p65 translocation robust z-score: 0
- nuclear/cytoplasmic p65 ratio, rep 1: 1.4
- nuclear/cytoplasmic p65 ratio, rep 2: 1.73
- low cell count flag: enough cells to score
- call: inactive

Foxp2 (forkhead box P2)
- p65 translocation robust z-score: -1.08
- nuclear/cytoplasmic p65 ratio, rep 1: 1.21
- nuclear/cytoplasmic p65 ratio, rep 2: 1.31
- low cell count flag: enough cells to score
- call: inactive

Ptcra (pre T cell antigen receptor alpha)
- p65 translocation robust z-score: -0.76
- nuclear/cytoplasmic p65 ratio, rep 1: 1.36
- nuclear/cytoplasmic p65 ratio, rep 2: 1.33
- low cell count flag: enough cells to score
- call: inactive

Aqp6 (aquaporin 6)
- p65 translocation robust z-score: -0.15
- nuclear/cytoplasmic p65 ratio, rep 1: 1.63
- nuclear/cytoplasmic p65 ratio, rep 2: 1.56
- low cell count flag: enough cells to score
- call: inactive

2310022B05Rik (RIKEN cDNA 2310022B05 gene)
- nuclear/cytoplasmic p65 ratio, rep 1: 1.19
- nuclear/cytoplasmic p65 ratio, rep 2: 1.31
- low cell count flag: fewer than 50 cells per well; well left out of scoring
- call: inactive

Tspan5 (tetraspanin 5)
- p65 translocation robust z-score: 1.38
- nuclear/cytoplasmic p65 ratio, rep 1: 1.54
- nuclear/cytoplasmic p65 ratio, rep 2: 1.42
- low cell count flag: enough cells to score
- call: inactive

Prdm5 (PR domain containing 5)
- p65 translocation robust z-score: 0.63
- nuclear/cytoplasmic p65 ratio, rep 1: 1.66
- nuclear/cytoplasmic p65 ratio, rep 2: 1.42
- low cell count flag: enough cells to score
- call: inactive

Tgfbi (transforming growth factor, beta induced)
- p65 translocation robust z-score: -0.24
- nuclear/cytoplasmic p65 ratio, rep 1: 1.47
- nuclear/cytoplasmic p65 ratio, rep 2: 1.5
- low cell count flag: enough cells to score
- call: inactive

Clec4d (C-type lectin domain family 4, member d)
- p65 translocation robust z-score: -0.38
- nuclear/cytoplasmic p65 ratio, rep 1: 1.47
- nuclear/cytoplasmic p65 ratio, rep 2: 1.33
- low cell count flag: enough cells to score
- call: inactive

Not a retest: entries from further up.
Ptcra (pre T cell antigen receptor alpha)
- p65 translocation robust z-score: -0.76
- nuclear/cytoplasmic p65 ratio, rep 1: 1.36
- nuclear/cytoplasmic p65 ratio, rep 2: 1.33
- low cell count flag: enough cells to score
- call: inactive

Aqp6 (aquaporin 6)
- p65 translocation robust z-score: -0.15
- nuclear/cytoplasmic p65 ratio, rep 1: 1.63
- nuclear/cytoplasmic p65 ratio, rep 2: 1.56
- low cell count flag: enough cells to score
- call: inactive

2310022B05Rik (RIKEN cDNA 2310022B05 gene)
- nuclear/cytoplasmic p65 ratio, rep 1: 1.19
- nuclear/cytoplasmic p65 ratio, rep 2: 1.31
- low cell count flag: fewer than 50 cells per well; well left out of scoring
- call: inactive

Further records follow:
Gvin1 (GTPase, very large interferon inducible 1)
- p65 translocation robust z-score: 0.61
- nuclear/cytoplasmic p65 ratio, rep 1: 1.57
- nuclear/cytoplasmic p65 ratio, rep 2: 1.57
- low cell count flag: enough cells to score
- call: inactive

Clec4e (C-type lectin domain family 4, member e)
- p65 translocation robust z-score: -1.11
- nuclear/cytoplasmic p65 ratio, rep 1: 1.41
- nuclear/cytoplasmic p65 ratio, rep 2: 1.62
- low cell count flag: enough cells to score
- call: inactive

Abhd10 (abhydrolase domain containing 10)
- p65 translocation robust z-score: -0.14
- nuclear/cytoplasmic p65 ratio, rep 1: 1.48
- nuclear/cytoplasmic p65 ratio, rep 2: 1.59
- low cell count flag: enough cells to score
- call: inactive

Vax1 (ventral anterior homeobox 1)
- nuclear/cytoplasmic p65 ratio, rep 1: 1.19
- nuclear/cytoplasmic p65 ratio, rep 2: 0
- low cell count flag: fewer than 50 cells per well; well left out of scoring
- call: inactive

Mipep (mitochondrial intermediate peptidase)
- p65 translocation robust z-score: 2.16
- nuclear/cytoplasmic p65 ratio, rep 1: 1.76
- nuclear/cytoplasmic p65 ratio, rep 2: 1.59
- low cell count flag: enough cells to score
- call: inactive

Mafa (MAF bZIP transcription factor A)
- p65 translocation robust z-score: 0.52
- nuclear/cytoplasmic p65 ratio, rep 1: 1.78
- nuclear/cytoplasmic p65 ratio, rep 2: 1.64
- low cell count flag: enough cells to score
- call: inactive

Tmem9b (TMEM9 domain family, member B)
- nuclear/cytoplasmic p65 ratio, rep 1: 1.26
- nuclear/cytoplasmic p65 ratio, rep 2: 1.37
- low cell count flag: fewer than 50 cells per well; well left out of scoring
- call: inactive
